Here are results for one substance from article PMC11549447.

Sequences of proteins named here, by UniProt entry; tags and fusion partners are left off.
UniProt P04150: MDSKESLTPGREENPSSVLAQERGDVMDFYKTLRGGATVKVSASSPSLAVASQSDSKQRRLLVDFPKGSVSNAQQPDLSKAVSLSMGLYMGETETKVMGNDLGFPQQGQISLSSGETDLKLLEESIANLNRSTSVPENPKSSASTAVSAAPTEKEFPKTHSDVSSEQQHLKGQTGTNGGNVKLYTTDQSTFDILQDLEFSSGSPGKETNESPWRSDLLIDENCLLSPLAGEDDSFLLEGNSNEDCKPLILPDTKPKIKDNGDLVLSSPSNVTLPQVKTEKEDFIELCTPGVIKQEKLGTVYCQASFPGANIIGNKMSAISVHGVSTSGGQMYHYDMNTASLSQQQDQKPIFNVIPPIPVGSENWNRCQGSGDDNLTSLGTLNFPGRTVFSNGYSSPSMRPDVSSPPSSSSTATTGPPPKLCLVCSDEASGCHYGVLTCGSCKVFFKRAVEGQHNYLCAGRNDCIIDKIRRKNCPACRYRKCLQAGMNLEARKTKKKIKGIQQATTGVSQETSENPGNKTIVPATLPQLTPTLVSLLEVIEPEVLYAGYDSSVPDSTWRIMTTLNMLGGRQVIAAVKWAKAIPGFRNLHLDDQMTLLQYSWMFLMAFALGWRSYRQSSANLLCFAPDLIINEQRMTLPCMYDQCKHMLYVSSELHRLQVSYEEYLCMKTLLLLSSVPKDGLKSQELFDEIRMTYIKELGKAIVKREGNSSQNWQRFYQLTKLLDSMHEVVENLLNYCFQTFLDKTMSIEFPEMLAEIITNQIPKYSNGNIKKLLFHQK

What all share (assay): co-IP; PP5-FLAG WT or K430R isolated from HEK293 cells, incubated with ATP with or without recombinant SUMO-1 (in vitro SUMOylation kit, 37 °C, 60 min); FLAG IP, GR by immunoblot
Background: A western blot detects proteins with antibodies after separation by electrophoresis.

Experiment [1] has as its target T1, PP5-FLAG-K430R, non-SUMOylatable mutant (UniProt P53041).
T1 sequence: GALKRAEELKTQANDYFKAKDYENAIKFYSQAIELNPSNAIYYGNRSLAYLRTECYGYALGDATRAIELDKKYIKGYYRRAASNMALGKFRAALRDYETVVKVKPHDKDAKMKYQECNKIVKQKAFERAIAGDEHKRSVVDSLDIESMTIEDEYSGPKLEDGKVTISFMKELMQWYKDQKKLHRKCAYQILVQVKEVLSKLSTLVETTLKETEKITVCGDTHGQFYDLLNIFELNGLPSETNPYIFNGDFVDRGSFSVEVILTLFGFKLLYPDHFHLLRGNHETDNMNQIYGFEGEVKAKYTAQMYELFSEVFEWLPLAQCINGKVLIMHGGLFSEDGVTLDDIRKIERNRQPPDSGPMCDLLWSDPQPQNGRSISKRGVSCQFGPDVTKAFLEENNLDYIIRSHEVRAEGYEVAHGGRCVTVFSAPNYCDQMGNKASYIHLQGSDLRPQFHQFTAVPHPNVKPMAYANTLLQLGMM

Experiment [2] has as its target hyper-SUMOylated PP5-WT: PP5-FLAG SUMOylated in vitro with recombinant SUMO-1 (UniProt P53041).
Experiment [3] has as its target T2, serine/threonine protein phosphatase 5 (PP5), wild-type PP5-FLAG (UniProt P53041).
T2 sequence: T1 sequence with R408K

Numbering of substitutions follows the chain as printed. These are yes or no findings as the source states them, for the method shown. In cells and extracts the contact can be indirect. Some results given as binding are weak or reduced against the parent protein; the word gives no strength. For part of these data: Sequences can lack the tags named with a protein.

In the case of “glucocorticoid receptor (GR), endogenous (from UniProt P04150 1-777)”, the binding entry in experiment [1] was “binds”; in experiment [2] it was “no binding”; in experiment [3], “binds”.
